Measurements reported in PubChem BioAssay AID1224830 (NIAID, 2016).
The deposit covers about 18,000 reagents; shown is a part drawn at random. Over the whole deposit, about 2,900 (16%) are marked active. 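Calls are made per well; low scores hint the gene aids the LPS response, high scores that it dampens it.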 Repeated entries: four replicate wells of each siRNA pool. No sequences are given here.

Assay: 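Genes whose knock-down alters the TNF-alpha reporter response to LPS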 (primary screen)
Cell system: human THP-1 monocytic leukaemia cells, TNF dual-luciferase reporter clone, PMA-differentiated to macrophage-like cells
Reagent: siRNA pool against human genes, 50 nM
Timing: LPS for 4 h, given about 3 days after siRNA transfection
Conditions: bacterial LPS (TLR4 ligand), 10 ng/ml
Measured: 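TNF firefly reporter luminescence divided by renilla, normalised to the plate median, then turned into a robust z-score for each replicate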
Reading the numbers: TNF reporter robust z-score: higher = stronger TNF reporter response to LPS
Rule for the call: 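a well is active when its z-score exceeds 2.8 or falls below -1.5; control wells carry no call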

no.	gene	TNF reporter robust z-score	call
1	CPNE3	-0.99	inactive
2	CPNE3	-0.95	inactive
3	CPNE3	-0.48	inactive
4	CPNE3	-1.46	inactive
5	SOHLH2	0.11	inactive
6	SOHLH2	-0.68	inactive
7	SOHLH2	-0.84	inactive
8	SOHLH2	-0.46	inactive
9	LOC652591 (retired record)	-0.38	inactive
10	LOC652591 (retired record)	0.17	inactive
11	LOC652591 (retired record)	1.29	inactive
12	LOC652591 (retired record)	-0.29	inactive
13	C2CD4A	-0.81	inactive
14	C2CD4A	0.41	inactive
15	C2CD4A	0.29	inactive
16	C2CD4A	1.24	inactive
17	ST18	-0.53	inactive
18	ST18	0.06	inactive
19	ST18	-0.59	inactive
20	ST18	0.54	inactive
21	ACTL9	-0.06	inactive
22	ACTL9	0.33	inactive
23	ACTL9	0.12	inactive
24	ACTL9	-0.3	inactive
25	RFC5	0.26	inactive
26	RFC5	1.17	inactive
27	RFC5	0.93	inactive
28	RFC5	1.84	inactive

A stretch of the results above, as a working copy:
no.	gene	TNF reporter robust z-score	call
15	C2CD4A	0.29	inactive
16	C2CD4A	1.24	inactive
17	ST18	-0.53	inactive
18	ST18	0.06	inactive
19	ST18	-0.59	inactive
20	ST18	0.54	inactive
21	ACTL9	-0.06	inactive
22	ACTL9	0.33	inactive
23	ACTL9	0.12	inactive
24	ACTL9	-0.3	inactive
25	RFC5	0.26	inactive

Further results follow:
no.	gene	TNF reporter robust z-score	call
29	ZNF250	-0.03	inactive
30	ZNF250	0.21	inactive
31	ZNF250	0.33	inactive
32	ZNF250	0.39	inactive
33	SLC38A10	0.31	inactive
34	SLC38A10	0.76	inactive
35	SLC38A10	0.43	inactive
36	SLC38A10	0.95	inactive
37	NFRKB	1.17	inactive
38	NFRKB	1.56	inactive
39	NFRKB	-0.36	inactive
40	NFRKB	1.23	inactive
41	ASXL1	0.57	inactive
42	ASXL1	-0.36	inactive
43	ASXL1	0.93	inactive
44	ASXL1	1.36	inactive
45	PTHLH	0.65	inactive
46	PTHLH	-0.45	inactive
47	PTHLH	3.98	active
48	PTHLH	2.24	inactive
49	ZNF789	-0.28	inactive
50	ZNF789	-0.06	inactive
51	ZNF789	0.44	inactive
52	ZNF789	-1.36	inactive
53	PRPF3	-0.06	inactive
54	PRPF3	0.87	inactive
55	PRPF3	-0.43	inactive
56	PRPF3	1.33	inactive
57	C20orf144	0.69	inactive
58	C20orf144	2.18	inactive
59	C20orf144	-0.84	inactive
60	C20orf144	-1.41	inactive
61	VWA5B1	0.36	inactive
62	VWA5B1	0.8	inactive
63	VWA5B1	0.32	inactive
64	VWA5B1	1.7	inactive
65	TMEM128	-1.67	active
66	TMEM128	-0.25	inactive
67	TMEM128	-1.1	inactive
68	TMEM128	0.17	inactive
69	GRAMD4	-0.54	inactive
70	GRAMD4	-0.35	inactive
71	GRAMD4	0.24	inactive
72	GRAMD4	-0.29	inactive
73	ZNF704	-0.76	inactive
74	ZNF704	-0.33	inactive
75	ZNF704	-0.17	inactive
76	ZNF704	1	inactive
